The values below come from PubChem BioAssay AID330 (DTP/NCI, 2004).

This assay concerns P388 leukemia ip, CD2F1 mice, survival T/C. In words: NCI In Vivo Anticancer Drug Screen. Data for tumor model P388 Leukemia (intraperitoneal) in CD2F1 (CDF1) mice. The settings on record: T/C endpoint: median survival time, higher T/C = longer survival.
The mark [1] stands for this setting: dose: 200.0 mg/kg/injection, schedule: Q01DX005 (ip), vehicle: saline with Tween-80.
Where [2] appears, read: dose: 25.0 mg/kg/injection, schedule: Q01DX009 (ip), vehicle: water.
[3] abbreviates: dose: 200.0 mg/kg/injection, schedule: Q01DX009 (ip), vehicle: saline with Tween-80.
Where [4] appears, read: dose: 100.0 mg/kg/injection, schedule: Q01DX009 (ip), vehicle: saline with Tween-80.
Where [5] appears, read: dose: 100.0 mg/kg/injection, schedule: Q04DX002 (ip), vehicle: saline with Tween-80.
The mark [6] stands for this setting: dose: 50.0 mg/kg/injection, schedule: Q04DX002 (ip), vehicle: saline with Tween-80.

SMILES strings stand for the structures. The list is a part of this screen's results and no random one: it is rich in T/C values a quarter to a half above the control, in often repeated tests (any T/C) and in doses without a T/C. Other doses and runs of a compound stand elsewhere. T/C is the treated group as % of the vehicle group. Some doses have a count of surviving animals in place of a T/C: the source holds a T/C of zero for them, seemingly a mark for toxic or unscored doses. Some survivor counts are full or nearly so, which does not show that the dose was tolerated: the source hardly ever lists a survival T/C far under the control, and the zero likely stands for such cases as well. Survivors were counted at the toxicity check, usually on the fifth day, unless a day is given; later deaths do not show. Schedules are NCI's codes, read here as Q, the interval in days (D) or hours (H), X, the number of doses. Some entries were tested several times; their values stand side by side, smallest first. Where survival is the endpoint, the PubChem record calls one and a half times the control and up active, and a quarter to a half above the control has no call in these data; cut-offs in other NCI protocols can differ. Some T/C values are followed by the survivors on the day toxicity was checked, most often the fifth; where none is given, no animal had died by that day.

Consider `O=C1C=CC(=O)C=C1`, for which the survivor count reads like this: (dose: 12.5 mg/kg/injection, schedule: Q04DX003 (ip), vehicle: saline with Tween-80) 0 of 3 and 3 of 6; (dose: 25.0 mg/kg/injection, schedule: Q04DX003 (ip), vehicle: saline with Tween-80) 0 of 3; (dose: 50.0 mg/kg/injection, schedule: Q04DX003 (ip), vehicle: saline with Tween-80) 0 of 3; (dose: 100.0 mg/kg/injection, schedule: Q04DX003 (ip), vehicle: saline with Tween-80) 0 of 3; (dose: 200.0 mg/kg/injection, schedule: Q04DX003 (ip), vehicle: saline with Tween-80) 0 of 3.
As for `ClCCN(CCCl)c1ccc(N=Nc2cccc(Cl)c2Cl)cc1`, for the setting “dose: 75.0 mg/kg/injection, schedule: Q04DX003 (ip), vehicle: Klucel (hydroxypropylcellulose) (HPC)”, the T/C was 125 % of control.
`COc1ccc2c(c1)CC[C@@H]1[C@@H]2CC[C@@]2(C)[C@H]1CC[C@@]2(O)C(F)=C(F)F`: the survivor count (dose: 400.0 mg/kg/injection, schedule: Q04DX003 (ip), vehicle: saline with Tween-80) is 6 of 6.
Turning to `CCCCN(CCCC)P1(=O)OP(=O)(N(CCCC)CCCC)OP(=O)(N(CCCC)CCCC)O1` (centres undefined), the survivor count is 3 of 5 (dose: 100.0 mg/kg/injection, schedule: Q01DX005 (ip), vehicle: saline) and 0 of 5 (dose: 200.0 mg/kg/injection, schedule: Q01DX005 (ip), vehicle: saline).
Regarding `CN(C)c1ccc2[nH]c3c(C(=O)O)cc(=O)c(=O)c=3oc2c1`, the survivor count under setting [1] was 0 of 5.
On to `COc1cccc2c1C(=O)c1c(O)c3c(c(O)c1C2=O)C[C@@](O)(C(=O)CO)C[C@@H]3OC1CC(N2CCCCC2)C(O)C(C)O1` (some centres undefined), for which the T/C reads like this: (dose: 0.39 mg/kg/injection, schedule: Q01DX009 (ip), vehicle: water) 137 % of control; (dose: 1.56 mg/kg/injection, schedule: Q01DX009 (ip), vehicle: water) 147 % of control; (dose: 18.8 mg/kg/injection, schedule: Q04DX003 (ip), vehicle: water) 148 % of control. Also, the survivor count is, setting by setting: (dose: 3.13 mg/kg/injection, schedule: Q01DX009 (ip), vehicle: water) 6 of 6; (dose: 6.25 mg/kg/injection, schedule: Q01DX009 (ip), vehicle: water) 4 of 6 and 6 of 6; (dose: 12.5 mg/kg/injection, schedule: Q01DX009 (ip), vehicle: water) 0 of 6 and 3 of 6; under setting [2], 0 of 6 and 1 of 6.
As for `O=[N+]([O-])c1ccc(N2CCN(c3ccccc3)CC2)c2nonc12`, the survivor count (dose: 50.0 mg/kg/injection, schedule: Q01DX009 (ip), vehicle: suspension in saline) is listed as 6 of 6.
As for `COc1cc2c(cc1Oc1ccc(OC)c3c1CC1c4c(cc(OC)c(OC)c4-3)CCN1C)CC1c3c(cc(OC)c(OC)c3-2)CCN1C` (centres undefined), the survivor count (dose: 320.0 mg/kg/injection, schedule: Q01DX009 (ip), vehicle: water) was 0 of 6.
In the case of `CCOC(=O)NNCC(=O)OCc1ccccc1`, the survivor count (dose: 12.5 mg/kg/injection, schedule: Q01DX009 (ip), vehicle: other) was 6 of 6.
For the compound `CCOc1n[n+]([O-])c(Cl)cc1[N+](=O)[O-]`, the survivor count under setting [3] is reported as 2 of 6.
In the case of `O=C(O)Cc1cccc(S(=O)(=O)F)c1`, the survivor count (dose: 240.0 mg/kg/injection, schedule: Q01DX005 (ip), vehicle: saline with Tween-80) is 2 of 6.
Turning to `N#CN=[N+]([O-])c1ccccc1Cl`, under “dose: 50.0 mg/kg/injection, schedule: Q04DX003 (ip), vehicle: Klucel (hydroxypropylcellulose) (HPC)”, the survivor count is 4 of 6.
In the case of `Cc1[nH]c(=O)[nH]c(=O)c1/C=C/C(=O)NC(CO)CS(=O)C(C)C` (centres undefined), the T/C (dose: 16.0 mg/kg/injection, schedule: Q01DX009 (ip), vehicle: water) was 125 % of control.
Regarding `OC(COc1cccc(C(F)(F)F)c1)CN1CCN(c2ccc(F)cc2)CC1` (centres undefined), the survivor count by setting is: (dose: 100.0 mg/kg/injection, schedule: Q01DX009 (ip), vehicle: distilled water + Tween-80) 2 of 6; (dose: 200.0 mg/kg/injection, schedule: Q01DX009 (ip), vehicle: distilled water + Tween-80) 0 of 6. Moreover, the T/C under setting [4] was 135 % of control [4 of 6 alive].
Consider `COc1cc(C2c3cc4c(cc3C(OC3CCCCO3)C3COC(=O)C23)OCO4)cc(OC)c1OC` (centres undefined), for which the T/C by setting is: (dose: 6.25 mg/kg/injection, schedule: Q01DX005 (ip), vehicle: Klucel (hydroxypropylcellulose) (HPC)) 129 and 131 % of control; (dose: 12.5 mg/kg/injection, schedule: Q01DX005 (ip), vehicle: Klucel (hydroxypropylcellulose) (HPC)) 133 and 149 % of control. In addition, the survivor count (dose: 25.0 mg/kg/injection, schedule: Q01DX005 (ip), vehicle: Klucel (hydroxypropylcellulose) (HPC)) was 1 of 6 and 4 of 6; the survivor count (dose: 50.0 mg/kg/injection, schedule: Q01DX005 (ip), vehicle: Klucel (hydroxypropylcellulose) (HPC)) was 0 of 6; the survivor count (dose: 100.0 mg/kg/injection, schedule: Q01DX005 (ip), vehicle: Klucel (hydroxypropylcellulose) (HPC)) is 0 of 6; the survivor count (dose: 200.0 mg/kg/injection, schedule: Q01DX005 (ip), vehicle: Klucel (hydroxypropylcellulose) (HPC)) is reported as 0 of 6.
As for `O=[N+]([O-])c1ccc2c(c1)N=Cc1ccccc1NCCNc1ccccc1C=N2`, for the setting “dose: 50.0 mg/kg/injection, schedule: Q01DX009 (ip), vehicle: saline”, the survivor count is reported as 6 of 6.
`Nc1cc(C(F)(F)F)ccc1S`: the survivor count runs as follows: (dose: 12.0 mg/kg/injection, schedule: Q01DX009 (ip), vehicle: DMSO) 6 of 6; (dose: 25.0 mg/kg/injection, schedule: Q01DX009 (ip), vehicle: DMSO) 3 of 6; (dose: 50.0 mg/kg/injection, schedule: Q01DX009 (ip), vehicle: DMSO) 2 of 6 and 4 of 5; (dose: 100.0 mg/kg/injection, schedule: Q01DX009 (ip), vehicle: DMSO) 2 of 6; (dose: 200.0 mg/kg/injection, schedule: Q01DX009 (ip), vehicle: DMSO) 0 of 6.
In the case of `N#CC1CC2(CCC1=O)c1ccccc1-c1ccccc12` (centres undefined), the survivor count under setting [5] is 2 of 6.
As for `CN(C)c1nc(=O)c2ccccc2o1`, the survivor count is recorded as 0 of 6 (dose: 120.0 mg/kg/injection, schedule: Q01DX005 (ip), vehicle: saline) and 0 of 6 (dose: 240.0 mg/kg/injection, schedule: Q01DX005 (ip), vehicle: saline).
`CCCC1CCCCN1Cc1ccccc1` (centres undefined): the survivor count under setting [1] was 0 of 6.
Take `Cc1ccc2ccc(N(C)C)cc2n1`: the survivor count under setting [3] is reported as 3 of 6.
With `O=C(NS(=O)(=O)c1ccc(Cl)cc1)c1ccccc1`, where the note is “dose: 25.0 mg/kg/injection, schedule: Q01DX009 (ip), vehicle: saline with Tween-80”, the survivor count is recorded as 5 of 6. In addition, under setting [4], the T/C was 127 % of control [5 of 6 alive] and the survivor count is listed as 6 of 6.
Take `COC1/C=C\C=C(/C)C(=O)NC2=CC(=O)C(NCCCl)=C(CC(C)CC(OC)C(O)C(C)/C=C(/C)C1OC(N)=O)C2=O` (centres undefined): the T/C by setting is: (dose: 10.0 mg/kg/injection, schedule: Q04DX002 (ip), vehicle: saline with Tween-80) 125 % of control; (dose: 25.0 mg/kg/injection, schedule: Q04DX002 (ip), vehicle: saline with Tween-80) 134 and 138 % of control; (dose: 40.0 mg/kg/injection, schedule: Q04DX002 (ip), vehicle: saline with Tween-80) 126 % of control [5 of 6 alive]; under setting [6], 147 % of control. The survivor count under setting [6] was 6 of 6; the survivor count (dose: 80.0 mg/kg/injection, schedule: Q04DX002 (ip), vehicle: saline with Tween-80) is on record as 0 of 6; the survivor count under setting [5] is 1 of 6.
`O=C(O)/C=N/NS(=O)(=O)c1ccccc1`: the T/C (dose: 22.0 mg/kg/injection, schedule: Q01DX009 (ip), vehicle: water) was 128 % of control; the T/C under setting [2] is 131 % of control; the T/C (dose: 33.0 mg/kg/injection, schedule: Q01DX009 (ip), vehicle: water) is 137 % of control; the T/C (dose: 50.0 mg/kg/injection, schedule: Q01DX009 (ip), vehicle: water) was 138 % of control. The survivor count (dose: 200.0 mg/kg/injection, schedule: Q01DX009 (ip), vehicle: water) is 6 of 6.
